No constants are given. Whether binding was seen depends on the method and setting. In cells and extracts the contact can be indirect. Some binding calls cover weakened binding; strength is not graded here.
Biological target: CHD4 (mouse (endogenous in choroid plexus)) (UniProt Q6PDQ2)
Assay: co-IP

Amino acid sequences for entries named in this document (tags omitted).
UniProt Q6PDQ2: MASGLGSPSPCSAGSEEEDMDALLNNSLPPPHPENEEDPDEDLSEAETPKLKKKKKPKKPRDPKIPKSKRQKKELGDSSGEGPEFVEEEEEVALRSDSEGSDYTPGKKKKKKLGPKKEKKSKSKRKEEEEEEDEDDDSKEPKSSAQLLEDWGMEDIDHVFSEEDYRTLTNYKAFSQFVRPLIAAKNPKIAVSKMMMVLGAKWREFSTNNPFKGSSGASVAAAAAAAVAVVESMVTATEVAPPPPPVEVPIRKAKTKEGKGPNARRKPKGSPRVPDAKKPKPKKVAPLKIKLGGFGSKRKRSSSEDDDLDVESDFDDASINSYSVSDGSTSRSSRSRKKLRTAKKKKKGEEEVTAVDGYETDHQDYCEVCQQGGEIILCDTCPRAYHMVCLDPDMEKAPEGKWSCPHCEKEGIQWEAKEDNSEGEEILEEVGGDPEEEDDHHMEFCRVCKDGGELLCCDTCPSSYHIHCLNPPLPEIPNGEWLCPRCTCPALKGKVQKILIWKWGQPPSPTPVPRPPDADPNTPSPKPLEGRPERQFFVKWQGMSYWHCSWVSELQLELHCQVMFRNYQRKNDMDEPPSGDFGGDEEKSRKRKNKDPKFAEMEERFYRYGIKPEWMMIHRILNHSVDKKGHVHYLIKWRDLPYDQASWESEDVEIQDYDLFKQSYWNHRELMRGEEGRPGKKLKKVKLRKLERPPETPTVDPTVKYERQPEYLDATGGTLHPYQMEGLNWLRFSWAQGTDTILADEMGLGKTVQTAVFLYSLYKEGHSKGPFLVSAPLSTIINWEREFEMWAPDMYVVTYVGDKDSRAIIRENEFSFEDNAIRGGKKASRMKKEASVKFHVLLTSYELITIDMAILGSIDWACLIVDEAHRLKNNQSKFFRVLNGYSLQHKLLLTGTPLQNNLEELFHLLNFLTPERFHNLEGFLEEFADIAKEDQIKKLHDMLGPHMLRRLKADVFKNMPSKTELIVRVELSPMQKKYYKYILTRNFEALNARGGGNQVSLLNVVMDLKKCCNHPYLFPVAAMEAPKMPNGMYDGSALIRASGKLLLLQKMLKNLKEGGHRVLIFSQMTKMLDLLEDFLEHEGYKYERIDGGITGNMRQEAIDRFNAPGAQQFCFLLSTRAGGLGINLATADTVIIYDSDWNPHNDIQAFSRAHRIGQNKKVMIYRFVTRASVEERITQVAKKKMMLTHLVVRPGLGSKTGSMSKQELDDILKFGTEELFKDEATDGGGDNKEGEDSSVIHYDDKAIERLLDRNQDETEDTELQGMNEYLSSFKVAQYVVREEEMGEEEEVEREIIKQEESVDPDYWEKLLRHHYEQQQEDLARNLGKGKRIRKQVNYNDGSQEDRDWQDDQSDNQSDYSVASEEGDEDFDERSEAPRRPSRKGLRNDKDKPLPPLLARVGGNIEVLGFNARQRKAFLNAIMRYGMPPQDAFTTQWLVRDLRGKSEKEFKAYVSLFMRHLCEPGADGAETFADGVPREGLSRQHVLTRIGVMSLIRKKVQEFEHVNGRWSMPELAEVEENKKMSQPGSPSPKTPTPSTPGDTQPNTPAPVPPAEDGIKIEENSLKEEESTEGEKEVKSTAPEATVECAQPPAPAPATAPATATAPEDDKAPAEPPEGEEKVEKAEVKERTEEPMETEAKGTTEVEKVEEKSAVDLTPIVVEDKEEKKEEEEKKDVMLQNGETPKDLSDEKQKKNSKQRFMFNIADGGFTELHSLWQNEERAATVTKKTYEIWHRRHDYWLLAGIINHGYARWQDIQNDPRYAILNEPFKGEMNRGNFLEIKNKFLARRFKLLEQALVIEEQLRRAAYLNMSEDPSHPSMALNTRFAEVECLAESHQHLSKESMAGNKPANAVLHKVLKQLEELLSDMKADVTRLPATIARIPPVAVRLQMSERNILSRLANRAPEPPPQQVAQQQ
UniProt O09106: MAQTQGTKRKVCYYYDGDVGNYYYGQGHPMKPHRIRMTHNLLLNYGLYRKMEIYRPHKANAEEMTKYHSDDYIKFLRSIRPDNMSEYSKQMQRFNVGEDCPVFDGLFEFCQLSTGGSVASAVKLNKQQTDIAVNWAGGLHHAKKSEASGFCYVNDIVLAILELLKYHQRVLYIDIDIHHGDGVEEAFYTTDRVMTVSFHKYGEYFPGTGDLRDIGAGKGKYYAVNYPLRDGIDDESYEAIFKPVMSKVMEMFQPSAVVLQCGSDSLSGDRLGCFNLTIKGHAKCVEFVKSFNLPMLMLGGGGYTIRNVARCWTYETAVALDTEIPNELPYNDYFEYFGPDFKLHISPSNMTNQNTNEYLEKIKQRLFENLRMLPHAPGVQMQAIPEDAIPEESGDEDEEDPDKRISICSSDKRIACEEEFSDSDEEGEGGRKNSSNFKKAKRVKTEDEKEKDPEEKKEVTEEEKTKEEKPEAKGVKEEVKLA
UniProt P70288: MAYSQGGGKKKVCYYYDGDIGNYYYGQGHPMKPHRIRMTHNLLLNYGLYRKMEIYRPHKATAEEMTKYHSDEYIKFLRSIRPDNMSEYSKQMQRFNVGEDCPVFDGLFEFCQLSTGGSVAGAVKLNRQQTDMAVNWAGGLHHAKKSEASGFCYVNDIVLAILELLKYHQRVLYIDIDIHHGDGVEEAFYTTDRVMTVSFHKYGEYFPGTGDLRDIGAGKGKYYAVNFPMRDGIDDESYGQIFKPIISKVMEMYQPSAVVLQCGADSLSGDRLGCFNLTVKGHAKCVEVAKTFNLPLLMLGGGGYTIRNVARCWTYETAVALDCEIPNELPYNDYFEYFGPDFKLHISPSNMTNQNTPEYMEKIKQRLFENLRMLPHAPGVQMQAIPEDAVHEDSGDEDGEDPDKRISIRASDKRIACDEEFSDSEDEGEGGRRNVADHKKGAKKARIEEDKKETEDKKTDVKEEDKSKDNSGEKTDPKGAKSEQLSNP

Substance	binding
HDAC1 (from UniProt O09106 1-482)	binds
HDAC2 (from UniProt P70288 1-488)	binds

From article doi:10.1101/2020.08.03.234260
